Experimental data: the supplement of paper PMC12819154, “High-throughput peptide-centric local stability assay extends protein–ligand identification to membrane proteins, tissues and bacteria” (Nature Structural & Molecular Biology, 2025)
The other results are listed elsewhere or left out. Most entries show no effect beyond the scatter of the controls.

Sequences of proteins named here, by UniProt entry; tags and fusion partners are left off. A change or cut given only in a name is not applied to a line headed by its entry.
UniProt P76085: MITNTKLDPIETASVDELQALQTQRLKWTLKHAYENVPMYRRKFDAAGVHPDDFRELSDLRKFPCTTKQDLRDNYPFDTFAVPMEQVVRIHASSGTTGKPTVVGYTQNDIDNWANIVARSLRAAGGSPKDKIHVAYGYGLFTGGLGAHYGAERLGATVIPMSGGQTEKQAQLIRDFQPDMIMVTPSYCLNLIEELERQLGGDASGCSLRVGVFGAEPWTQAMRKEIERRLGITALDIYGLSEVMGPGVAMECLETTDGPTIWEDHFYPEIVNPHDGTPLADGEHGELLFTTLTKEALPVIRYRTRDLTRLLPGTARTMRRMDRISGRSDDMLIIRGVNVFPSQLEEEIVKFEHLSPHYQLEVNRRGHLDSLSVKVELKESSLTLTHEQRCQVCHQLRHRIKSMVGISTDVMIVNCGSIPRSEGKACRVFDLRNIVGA
UniProt P76161: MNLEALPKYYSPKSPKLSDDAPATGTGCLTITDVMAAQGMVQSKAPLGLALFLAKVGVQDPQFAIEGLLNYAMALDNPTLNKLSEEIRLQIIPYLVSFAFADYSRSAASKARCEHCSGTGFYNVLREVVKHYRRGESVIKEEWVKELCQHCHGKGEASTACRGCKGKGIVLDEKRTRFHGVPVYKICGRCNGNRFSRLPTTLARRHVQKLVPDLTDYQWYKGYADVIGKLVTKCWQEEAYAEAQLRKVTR
UniProt P77212: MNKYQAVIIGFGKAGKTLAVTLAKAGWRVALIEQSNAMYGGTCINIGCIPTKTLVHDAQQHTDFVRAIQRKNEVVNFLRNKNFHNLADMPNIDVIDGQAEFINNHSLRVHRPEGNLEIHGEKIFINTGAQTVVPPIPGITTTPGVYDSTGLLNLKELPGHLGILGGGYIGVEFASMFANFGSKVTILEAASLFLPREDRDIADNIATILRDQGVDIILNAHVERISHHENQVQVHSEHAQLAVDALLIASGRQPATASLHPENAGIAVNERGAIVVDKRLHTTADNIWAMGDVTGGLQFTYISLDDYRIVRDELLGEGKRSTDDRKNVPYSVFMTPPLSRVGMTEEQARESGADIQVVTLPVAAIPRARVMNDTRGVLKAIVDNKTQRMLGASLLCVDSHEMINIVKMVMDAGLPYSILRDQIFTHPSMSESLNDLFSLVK
UniProt P76632: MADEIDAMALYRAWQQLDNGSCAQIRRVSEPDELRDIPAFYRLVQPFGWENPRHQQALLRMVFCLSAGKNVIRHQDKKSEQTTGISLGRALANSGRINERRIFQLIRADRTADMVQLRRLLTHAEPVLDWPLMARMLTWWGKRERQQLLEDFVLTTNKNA
UniProt P76172: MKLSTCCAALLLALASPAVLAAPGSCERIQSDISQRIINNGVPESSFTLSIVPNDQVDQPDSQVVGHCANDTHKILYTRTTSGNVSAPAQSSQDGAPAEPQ
UniProt P76237: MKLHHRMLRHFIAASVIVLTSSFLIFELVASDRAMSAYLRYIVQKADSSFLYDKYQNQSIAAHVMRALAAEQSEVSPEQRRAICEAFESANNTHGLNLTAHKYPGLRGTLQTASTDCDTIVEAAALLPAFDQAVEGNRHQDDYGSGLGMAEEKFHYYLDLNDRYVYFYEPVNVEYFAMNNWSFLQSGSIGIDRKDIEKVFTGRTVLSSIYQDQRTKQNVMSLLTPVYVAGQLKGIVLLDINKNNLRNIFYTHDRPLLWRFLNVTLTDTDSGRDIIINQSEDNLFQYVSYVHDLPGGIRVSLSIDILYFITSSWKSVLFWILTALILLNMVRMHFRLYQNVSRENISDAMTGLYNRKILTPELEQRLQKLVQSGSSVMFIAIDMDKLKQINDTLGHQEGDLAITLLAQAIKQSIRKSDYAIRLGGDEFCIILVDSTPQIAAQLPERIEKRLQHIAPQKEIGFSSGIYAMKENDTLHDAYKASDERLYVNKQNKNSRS
UniProt P76594: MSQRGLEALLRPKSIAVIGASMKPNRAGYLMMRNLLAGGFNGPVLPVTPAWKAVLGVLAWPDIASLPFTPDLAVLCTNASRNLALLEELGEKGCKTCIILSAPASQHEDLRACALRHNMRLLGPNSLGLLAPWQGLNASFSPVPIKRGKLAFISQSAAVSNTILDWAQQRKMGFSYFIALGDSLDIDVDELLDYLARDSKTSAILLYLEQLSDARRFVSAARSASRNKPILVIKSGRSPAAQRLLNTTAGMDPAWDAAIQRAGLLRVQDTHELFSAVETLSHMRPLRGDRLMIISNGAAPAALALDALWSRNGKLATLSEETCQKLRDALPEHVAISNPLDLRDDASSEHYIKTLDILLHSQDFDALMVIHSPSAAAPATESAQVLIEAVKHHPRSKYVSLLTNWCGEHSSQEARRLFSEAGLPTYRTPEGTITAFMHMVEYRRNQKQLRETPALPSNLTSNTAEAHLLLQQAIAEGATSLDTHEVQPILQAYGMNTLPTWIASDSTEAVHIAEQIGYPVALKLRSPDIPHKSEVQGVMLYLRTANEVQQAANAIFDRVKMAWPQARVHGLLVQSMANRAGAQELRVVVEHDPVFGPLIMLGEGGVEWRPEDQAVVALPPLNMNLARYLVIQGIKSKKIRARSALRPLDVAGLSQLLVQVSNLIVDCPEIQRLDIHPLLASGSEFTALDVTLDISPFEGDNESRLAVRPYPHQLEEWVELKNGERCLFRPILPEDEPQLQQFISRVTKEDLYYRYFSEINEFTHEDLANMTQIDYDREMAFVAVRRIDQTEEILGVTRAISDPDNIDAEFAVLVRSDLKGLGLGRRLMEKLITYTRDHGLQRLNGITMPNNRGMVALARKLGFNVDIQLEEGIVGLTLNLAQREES
UniProt P76041: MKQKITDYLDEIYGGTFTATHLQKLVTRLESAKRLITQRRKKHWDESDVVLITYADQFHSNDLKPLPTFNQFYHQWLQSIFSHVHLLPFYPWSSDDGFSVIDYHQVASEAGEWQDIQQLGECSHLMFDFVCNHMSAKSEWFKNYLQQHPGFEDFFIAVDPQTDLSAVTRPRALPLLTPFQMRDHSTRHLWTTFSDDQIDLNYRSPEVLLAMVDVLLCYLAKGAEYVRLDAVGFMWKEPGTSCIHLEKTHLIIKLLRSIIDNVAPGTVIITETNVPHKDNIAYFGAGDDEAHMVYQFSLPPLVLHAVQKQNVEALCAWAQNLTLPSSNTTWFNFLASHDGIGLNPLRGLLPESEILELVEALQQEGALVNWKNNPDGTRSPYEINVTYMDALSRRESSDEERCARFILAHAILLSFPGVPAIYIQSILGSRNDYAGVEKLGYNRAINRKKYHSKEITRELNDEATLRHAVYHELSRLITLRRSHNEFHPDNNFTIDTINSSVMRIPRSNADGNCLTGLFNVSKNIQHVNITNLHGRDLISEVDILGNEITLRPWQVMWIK
UniProt P76256, whole entry: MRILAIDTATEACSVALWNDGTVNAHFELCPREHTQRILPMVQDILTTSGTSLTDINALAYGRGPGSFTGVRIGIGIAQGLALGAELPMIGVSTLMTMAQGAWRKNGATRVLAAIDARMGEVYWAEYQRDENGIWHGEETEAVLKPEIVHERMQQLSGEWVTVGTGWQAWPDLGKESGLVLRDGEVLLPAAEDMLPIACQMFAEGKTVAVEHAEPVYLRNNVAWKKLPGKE
UniProt P76257: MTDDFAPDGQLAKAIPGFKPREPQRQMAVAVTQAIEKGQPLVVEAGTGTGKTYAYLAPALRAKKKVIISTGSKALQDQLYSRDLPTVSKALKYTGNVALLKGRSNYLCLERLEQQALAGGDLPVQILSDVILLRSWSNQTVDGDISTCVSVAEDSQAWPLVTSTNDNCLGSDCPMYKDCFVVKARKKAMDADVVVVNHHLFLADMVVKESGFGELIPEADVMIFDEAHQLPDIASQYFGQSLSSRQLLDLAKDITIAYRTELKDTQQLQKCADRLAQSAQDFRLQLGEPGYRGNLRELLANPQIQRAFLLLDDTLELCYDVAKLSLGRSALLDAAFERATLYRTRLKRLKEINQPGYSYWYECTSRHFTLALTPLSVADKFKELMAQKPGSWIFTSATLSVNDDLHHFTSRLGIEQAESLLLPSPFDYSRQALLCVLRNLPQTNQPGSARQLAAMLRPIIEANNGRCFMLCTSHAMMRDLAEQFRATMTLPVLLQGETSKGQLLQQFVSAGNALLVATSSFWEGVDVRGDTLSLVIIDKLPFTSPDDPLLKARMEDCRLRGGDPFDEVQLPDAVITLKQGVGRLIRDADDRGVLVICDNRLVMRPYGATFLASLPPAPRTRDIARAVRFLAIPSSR
UniProt P77509: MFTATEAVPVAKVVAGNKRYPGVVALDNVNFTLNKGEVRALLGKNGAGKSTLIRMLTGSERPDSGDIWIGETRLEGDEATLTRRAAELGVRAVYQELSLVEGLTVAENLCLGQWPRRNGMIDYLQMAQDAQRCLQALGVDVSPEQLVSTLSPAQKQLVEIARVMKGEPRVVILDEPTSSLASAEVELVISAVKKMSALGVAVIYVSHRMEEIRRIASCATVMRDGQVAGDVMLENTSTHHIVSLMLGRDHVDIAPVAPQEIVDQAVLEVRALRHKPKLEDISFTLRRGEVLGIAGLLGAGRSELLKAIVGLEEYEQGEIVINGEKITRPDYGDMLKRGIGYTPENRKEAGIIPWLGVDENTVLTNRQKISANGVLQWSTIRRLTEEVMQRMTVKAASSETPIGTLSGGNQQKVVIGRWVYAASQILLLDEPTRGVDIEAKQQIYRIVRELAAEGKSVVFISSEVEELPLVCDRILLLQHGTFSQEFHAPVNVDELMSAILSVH
UniProt P76156: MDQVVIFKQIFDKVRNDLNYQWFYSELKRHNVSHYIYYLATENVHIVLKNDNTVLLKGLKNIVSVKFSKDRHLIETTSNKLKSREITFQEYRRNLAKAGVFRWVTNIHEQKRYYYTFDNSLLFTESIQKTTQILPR
UniProt P75874: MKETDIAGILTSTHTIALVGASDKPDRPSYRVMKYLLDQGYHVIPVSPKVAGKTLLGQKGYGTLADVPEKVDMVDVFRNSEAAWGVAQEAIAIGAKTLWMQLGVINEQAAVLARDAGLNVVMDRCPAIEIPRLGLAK
UniProt P77330: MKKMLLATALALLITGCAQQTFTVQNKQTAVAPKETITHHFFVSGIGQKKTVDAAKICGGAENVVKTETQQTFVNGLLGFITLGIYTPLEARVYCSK
UniProt P76372: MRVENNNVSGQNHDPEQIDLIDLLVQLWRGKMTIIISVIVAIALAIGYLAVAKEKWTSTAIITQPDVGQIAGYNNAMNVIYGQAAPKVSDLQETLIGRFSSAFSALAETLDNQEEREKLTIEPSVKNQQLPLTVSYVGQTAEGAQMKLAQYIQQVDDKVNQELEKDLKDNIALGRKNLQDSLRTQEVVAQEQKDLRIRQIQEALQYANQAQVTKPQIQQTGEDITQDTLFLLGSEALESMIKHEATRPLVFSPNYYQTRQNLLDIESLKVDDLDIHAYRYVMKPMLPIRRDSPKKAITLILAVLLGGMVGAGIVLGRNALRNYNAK
UniProt P77221: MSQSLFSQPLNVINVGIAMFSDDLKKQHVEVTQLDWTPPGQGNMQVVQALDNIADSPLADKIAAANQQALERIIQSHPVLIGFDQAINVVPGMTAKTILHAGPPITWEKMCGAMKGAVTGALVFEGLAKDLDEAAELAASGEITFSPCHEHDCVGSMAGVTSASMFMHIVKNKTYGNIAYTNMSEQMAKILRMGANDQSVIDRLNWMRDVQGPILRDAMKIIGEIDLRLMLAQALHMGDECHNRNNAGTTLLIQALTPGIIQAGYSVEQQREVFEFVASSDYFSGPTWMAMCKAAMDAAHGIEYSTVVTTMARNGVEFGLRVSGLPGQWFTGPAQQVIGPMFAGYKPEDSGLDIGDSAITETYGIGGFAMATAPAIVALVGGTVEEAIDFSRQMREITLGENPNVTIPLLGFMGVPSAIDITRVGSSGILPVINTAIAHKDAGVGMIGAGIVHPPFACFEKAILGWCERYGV
UniProt P76226: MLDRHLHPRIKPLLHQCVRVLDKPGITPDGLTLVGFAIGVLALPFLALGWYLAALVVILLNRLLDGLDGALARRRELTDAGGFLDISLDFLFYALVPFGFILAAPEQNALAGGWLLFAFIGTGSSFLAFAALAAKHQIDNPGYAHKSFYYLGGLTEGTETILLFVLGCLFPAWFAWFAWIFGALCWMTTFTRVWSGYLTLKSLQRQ
UniProt P76445: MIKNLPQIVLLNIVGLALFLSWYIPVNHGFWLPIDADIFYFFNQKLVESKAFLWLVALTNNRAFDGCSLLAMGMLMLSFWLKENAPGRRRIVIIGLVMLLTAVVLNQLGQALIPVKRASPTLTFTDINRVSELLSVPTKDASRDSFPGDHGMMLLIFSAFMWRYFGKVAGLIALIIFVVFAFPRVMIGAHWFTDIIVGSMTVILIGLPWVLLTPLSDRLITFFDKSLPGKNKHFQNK
UniProt P77409: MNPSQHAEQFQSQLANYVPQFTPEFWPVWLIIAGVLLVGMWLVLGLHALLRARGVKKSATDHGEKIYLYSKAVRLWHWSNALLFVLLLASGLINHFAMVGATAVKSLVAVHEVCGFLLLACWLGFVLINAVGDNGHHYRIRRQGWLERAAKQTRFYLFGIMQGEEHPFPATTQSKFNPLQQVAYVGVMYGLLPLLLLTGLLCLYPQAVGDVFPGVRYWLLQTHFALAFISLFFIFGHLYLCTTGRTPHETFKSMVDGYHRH

Each target was assayed with CC1(C)S[C@@H]2[C@H](NC(=O)[C@H](N)c3ccccc3)C(=O)N2[C@H]1C(=O)O [ampicillin] (assay: log2 fold change of tryptic peptide abundance, ligand vs vehicle (limited proteolysis) (log2 ratio); higher = more trypsin-susceptible (destabilized)). Settings: ligand concentration: 10 uM; sample: E. coli crude lysate.

Row | Target | log2 fold change
1 | UniProt P76085 (peptide sequence: FEHLSPHYQLEVNRR, peptide start residue: 351) | 0.652
2 | UniProt P76161 (peptide sequence: RGESVIKEEWVK, peptide start residue: 134) | 0.489
3 | UniProt P77212 (peptide sequence: IVRDELLGEGKR, peptide start residue: 309) | -0.704
4 | UniProt P76632 (peptide sequence: SEQTTGISLGR, peptide start residue: 79) | 0.0877
5 | UniProt P76172 (peptide sequence: IQSDISQR, peptide start residue: 29) | 0.0108
6 | UniProt P76237 (peptide sequence: ENDTLHDAYK, peptide start residue: 470) | -1.02
7 | UniProt P77357 (peptide sequence: VNVGVMQAGSGR, peptide start residue: 276) | -0.177
8 | UniProt P75954 (peptide sequence: SGMPVDVR, peptide start residue: 304) | -0.188
9 | UniProt P76594 (peptide sequence: SEVQGVMLYLR, peptide start residue: 533) | -0.239
10 | UniProt P76041 (peptide sequence: ELNDEATLR, peptide start residue: 458) | 0.239
11 | UniProt P76256 (peptide sequence: DENGIWHGEETEAVLKPEIVHER, peptide start residue: 130) | 0.179
12 | UniProt P77306 (peptide sequence: SIAIAAK, peptide start residue: 334) | -0.591
13 | UniProt P76257 (peptide sequence: QLAAMLRPIIEANNGR, peptide start residue: 451) | -0.407
14 | UniProt P77509 (peptide sequence: RAAELGVR, peptide start residue: 84) | 0.101
15 | UniProt P76156 (peptide sequence: NDLNYQWFYSELKR, peptide start residue: 16) | -0.244
16 | UniProt P75874 (peptide sequence: CPAIEIPR, peptide start residue: 125) | -0.415
17 | UniProt P77330 (peptide sequence: ETITHHFFVSGIGQK, peptide start residue: 35) | -0.116
18 | UniProt P77402 (peptide sequence: VGYENVDHFAK, peptide start residue: 255) | -0.488
19 | UniProt P75915 (peptide sequence: VLGSLYYR, peptide start residue: 10) | -0.162
20 | UniProt P76372 (peptide sequence: DNIALGRK, peptide start residue: 169) | 0.501
21 | UniProt P77316 (peptide sequence: GYEIFEKR, peptide start residue: 370) | -0.418
22 | UniProt P77221 (peptide sequence: LMLAQALHMGDECHNR, peptide start residue: 229) | 0.16
23 | UniProt P76226 (peptide sequence: PLLHQCVR, peptide start residue: 12) | 0.12
24 | UniProt P76445 (peptide sequence: VSELLSVPTK, peptide start residue: 130) | -0.121
25 | UniProt P77409 (peptide sequence: SMVDGYHRH, peptide start residue: 253) | 0.157

Pulled one by one from the entries so far, 2 records:
Row | Target | log2 fold change
7 | UniProt P77357 (peptide sequence: VNVGVMQAGSGR, peptide start residue: 276) | -0.177
13 | UniProt P76257 (peptide sequence: QLAAMLRPIIEANNGR, peptide start residue: 451) | -0.407
